Only a part is listed here, and it is no random draw. For some assays here: At the low end of the ranking the order means little. This is one part of the list. For some assays here: The exact form of the protein is not confirmed.
Assays:
Test in all cases: DAPPL (digital affinity profiling via proximity ligation, sequencing)
Settings in all cases: 10 mM Tris-HCl pH 7.5, 50 mM NaCl, 1 mM DTT, 4% glycerol, room temperature, 30 min; GST-TFs on glutathione beads, 16-mer random dsDNA library, 0.1% …; high values mean tight binding; double strand, one strand shown; scale: fold enrichment (6-mer frequency, TF over GST control)
GABPA = target: T1, GABPA (UniProt Q06546)
T1 sequence: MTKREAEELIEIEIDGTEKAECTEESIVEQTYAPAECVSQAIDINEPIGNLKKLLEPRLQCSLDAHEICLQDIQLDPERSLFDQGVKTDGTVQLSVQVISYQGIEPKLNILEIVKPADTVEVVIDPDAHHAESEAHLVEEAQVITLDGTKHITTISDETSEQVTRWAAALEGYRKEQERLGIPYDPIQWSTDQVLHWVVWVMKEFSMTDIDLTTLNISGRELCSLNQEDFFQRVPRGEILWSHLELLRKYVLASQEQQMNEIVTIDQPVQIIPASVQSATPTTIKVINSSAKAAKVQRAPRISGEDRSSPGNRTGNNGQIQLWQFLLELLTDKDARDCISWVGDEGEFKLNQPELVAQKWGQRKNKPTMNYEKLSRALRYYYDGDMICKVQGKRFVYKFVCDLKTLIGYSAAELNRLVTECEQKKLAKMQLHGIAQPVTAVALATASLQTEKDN

ETS1 = target: T2, ETS1 (UniProt P14921)
T2 sequence: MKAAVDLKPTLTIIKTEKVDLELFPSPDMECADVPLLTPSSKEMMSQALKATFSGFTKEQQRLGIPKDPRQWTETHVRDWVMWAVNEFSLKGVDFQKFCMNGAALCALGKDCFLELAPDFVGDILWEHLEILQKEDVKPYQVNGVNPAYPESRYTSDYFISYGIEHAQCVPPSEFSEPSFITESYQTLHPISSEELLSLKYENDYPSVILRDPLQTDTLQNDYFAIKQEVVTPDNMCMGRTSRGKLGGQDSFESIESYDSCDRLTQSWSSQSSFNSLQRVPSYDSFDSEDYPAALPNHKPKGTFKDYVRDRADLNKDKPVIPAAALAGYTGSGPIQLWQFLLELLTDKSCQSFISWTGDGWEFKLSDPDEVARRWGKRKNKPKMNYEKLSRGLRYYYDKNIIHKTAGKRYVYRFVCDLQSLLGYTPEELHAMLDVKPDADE

SPDEF = target: T3, SPDEF (UniProt O95238)
T3 sequence: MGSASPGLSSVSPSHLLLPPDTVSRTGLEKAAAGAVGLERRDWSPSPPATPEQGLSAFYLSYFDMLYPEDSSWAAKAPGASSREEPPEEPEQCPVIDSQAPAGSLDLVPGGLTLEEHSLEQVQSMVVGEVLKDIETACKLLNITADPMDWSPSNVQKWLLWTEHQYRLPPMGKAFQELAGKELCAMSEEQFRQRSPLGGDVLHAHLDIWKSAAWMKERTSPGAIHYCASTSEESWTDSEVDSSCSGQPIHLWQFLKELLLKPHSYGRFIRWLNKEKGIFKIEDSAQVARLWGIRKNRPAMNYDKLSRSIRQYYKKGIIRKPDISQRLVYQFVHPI

Row | Sequence | binding signal (GABPA) | binding signal (ETS1) | binding signal (SPDEF)
1 | GCTCTG | 1.03 | 1.16 | 1.06
2 | TGAACC | – | 1.06 | 1.16
3 | TATCGA | 1.32 | 1.37 | 1.34
4 | TACTAA | – | 1.21 | 1.22
5 | ATGGAC | 1.21 | 1.2 | 1.17
6 | TGCTGT | 0.992 | 1.02 | 0.984
7 | TCCCAC | – | 1.4 | 1.33
8 | ATGCTT | 1.26 | 1.29 | 1.32
9 | ACGGCC | 1.12 | 1.06 | 1.17
10 | ACCCCG | 1.29 | 1.22 | 1.15
11 | TTGGCC | 1.23 | 1.08 | 1.06
12 | CCGATG | – | 1.09 | 0.963
13 | TCGCAC | 1.09 | 1.15 | 1.05
14 | TCCTCT | 1.57 | 1.6 | 1.58
15 | ATGTCT | 1.36 | 1.24 | 1.26
16 | TTATAC | 1.39 | 1.29 | 1.38
17 | ACTCGC | 1.18 | 1.13 | 0.934
18 | TACACC | 1.14 | 1.2 | 1.24
19 | AACGAC | – | 1.11 | 1.16
20 | CCTACA | 1.33 | 1.22 | 1.17
21 | CCGAAG | 1.12 | 1.09 | 0.901
22 | AAGCGA | 0.958 | 1.04 | 0.994

Row | Sequence | binding signal (GABPA) | binding signal (ETS1) | binding signal (SPDEF)
23 | ATGTAA | – | 1.43 | 1.32
24 | ATGATC | – | 1.15 | 1.27
25 | TTGCGC | – | 1.14 | 1.06
26 | AACGTA | – | 0.986 | 1.01
27 | CCTCTA | 1.39 | 1.52 | 1.32
28 | TGTCTC | – | 1.27 | 1.33
29 | AACATC | – | 1.49 | 1.68
30 | CGATGA | – | 1.01 | 0.907
31 | TTCGTT | 1.33 | 1.39 | 1.39
32 | TTCTTT | – | 1.12 | 1.08
33 | AATAAG | 1.31 | 1.28 | 1.26
34 | GTTTAC | 1.19 | 1.09 | 1.12
35 | TGGTAG | – | 1.1 | 0.995
36 | GCTCAG | – | 1.2 | 1.09
37 | ATTCCG | – | 1.79 | 1.85
38 | ACATTC | – | 1.34 | 1.27
39 | CGATCG | – | 1.1 | 1.1
40 | GCTTTC | – | 1.17 | 1.18
41 | GTCTTA | – | 1.26 | 1.17
42 | ACTTAA | – | 1.15 | 1.17
43 | ATCGTC | – | 1.08 | 1.05
44 | CGATAT | – | 1.19 | 1.06

Row | Sequence | binding signal (GABPA) | binding signal (ETS1) | binding signal (SPDEF)
45 | CCATAT | – | 1.22 | 1.33
46 | CAATAA | – | 1.22 | 1.05
47 | GTCTTC | – | 1.39 | 1.27
48 | AACCCA | – | 1.08 | 0.97
49 | AAAAGC | – | 1.17 | 1.07
50 | AATTGT | – | 1.3 | 1.21
51 | ATGCAA | – | 1.33 | 1.3
52 | TTAACG | – | 1.07 | 1.23
53 | TCACTT | – | 1.78 | 1.73
54 | CTCCTG | – | 1.64 | 1.6
55 | TCTTAG | – | 1.21 | 1.24
56 | ACATGG | – | 1.08 | 0.914
57 | ACTTCC | – | 7.9 | 8.64
58 | TACCAA | – | 1.26 | 1.17
59 | TATCAG | – | 1.13 | 1.26
60 | TGCCGC | – | 1.25 | 1.15
61 | TTACGA | – | 1.19 | 1.1
62 | AAATTT | – | 1.35 | 1.15
63 | CTCTAG | – | 1.36 | 1.24
64 | ATGGTT | – | 1.38 | 1.18
65 | CGATTC | – | 1.15 | 1.13
66 | CACTTG | – | 1.27 | 1.35

Row | Sequence | binding signal (GABPA) | binding signal (ETS1) | binding signal (SPDEF)
67 | TTTATA | – | 1.38 | 1.3
68 | AAGTTT | – | 1.48 | 1.37
69 | TCTTGC | – | 1.42 | 1.33
70 | ATGGTA | – | 1.47 | 1.31
71 | GCCTCA | – | 1.21 | 1.16
72 | GTCACA | – | 1.08 | 1.08
73 | CGACAC | – | 1.21 | 1.15
74 | TATGCG | – | 1.33 | 1.36
75 | GTTCAT | – | 1.15 | 1.18
76 | TCGCCT | – | 1.2 | 1.13
77 | GACCTC | – | 1.4 | 1.29
78 | TGTTCT | – | 1.43 | 1.22
79 | CTTGGT | – | 1.56 | 1.51
80 | AATACA | – | 1.39 | 1.37
81 | CGACGT | – | 1.08 | 1.02
82 | CTGTAA | – | 1.1 | 0.962
83 | TTGGGT | – | 1.15 | 1.04
84 | GAATCT | – | 1.11 | 0.989
85 | CGTTAC | – | 1.25 | 1.1
86 | CTGAGC | – | 1.06 | 1.16
87 | CAGAAT | – | 1.08 | 1.06
88 | CTTAGG | – | 1.05 | 1.06

Looked up above.
binding signal (SPDEF) with CGACGT is entered as 1.02
binding signal (ETS1) with TATGCG is entered as 1.33
binding signal (SPDEF) with AATACA is entered as 1.37
binding signal (ETS1) with GCCTCA is entered as 1.21

More records

Row | Sequence | binding signal (GABPA) | binding signal (ETS1) | binding signal (SPDEF)
89 | GTACTC | – | 0.97 | 1.02
90 | TATTAT | – | 1.43 | 1.29
91 | CTGGCC | – | 1.11 | 0.926
92 | GCCTTC | – | 1.58 | 1.47
93 | AAAAAA | – | 1.43 | 1.21
94 | AGGCTC | – | 1.12 | 0.938
95 | CATGCT | – | 1.26 | 1.2
96 | CAACAA | – | 1.09 | 0.995
97 | AAAGGT | – | 1.13 | 1.11
98 | CTTTCC | – | 1.75 | 1.96
99 | CTTCCT | – | 3.23 | 2.74
100 | ACCGAA | – | 1.04 | 0.969
101 | CGTATG | – | 1.05 | 1.05
102 | AACAGC | – | 1.11 | 0.961
103 | CTTGCC | – | 1.41 | 1.44
104 | TCTAAG | – | 1.33 | 1.1
105 | AAACGG | – | 1.22 | 1.25
106 | CGATTG | – | 1.25 | 1.22

Reference: PMC7862700
